Measured values published in doi:10.1101/330084.
These are yes or no findings as the source states them, for the method shown. For part of these data: Binding seen in cells or lysates may run through a third protein. Some entries that bind do so weakly or less than the wild type.

Key:
[1] = molecular target: transferrin receptor (mouse (endogenous in mouse heart)) (UniProt Q62351); test: co-IP
[2] = molecular target: transferrin receptor (mouse (endogenous in mouse heart)) (UniProt Q62351); test: co-IP; remark: listed apart in the source
[3] = molecular target: transferrin receptor (mouse (endogenous in mouse heart)) (UniProt Q62351); test: native gel or EMSA

binding [1]: binds | binding [2]: binds | binding [3]: binds
B1: mitoNEET (protein, UniProt Q91WS0 1-108)
chain: MGLSSNSAVRVEWIAAVTFAAGTAALGYLAYKKFYAKENRTKAMVNLQIQKDNPKVVHAFDMEDLGDKAVYCRCWRSKKFPFCDGAHIKHNEETGDNVGPLIIKKKET
